According to article PMC12048421:
Results are given in words; binding and its absence hold for the method and conditions named. Binding seen in cells or lysates may run through a third protein.

By UniProt entry, the sequences of proteins in these tests, tags left out.
UniProt P61073: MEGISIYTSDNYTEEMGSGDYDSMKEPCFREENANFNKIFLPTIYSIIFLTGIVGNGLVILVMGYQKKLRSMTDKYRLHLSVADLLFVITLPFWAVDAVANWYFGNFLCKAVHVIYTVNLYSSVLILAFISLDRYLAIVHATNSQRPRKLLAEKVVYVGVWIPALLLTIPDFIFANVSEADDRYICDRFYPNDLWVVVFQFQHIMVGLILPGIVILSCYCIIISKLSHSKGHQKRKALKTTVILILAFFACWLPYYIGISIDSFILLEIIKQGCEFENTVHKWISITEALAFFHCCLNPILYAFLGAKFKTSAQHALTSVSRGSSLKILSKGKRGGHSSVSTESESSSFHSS
UniProt O15218: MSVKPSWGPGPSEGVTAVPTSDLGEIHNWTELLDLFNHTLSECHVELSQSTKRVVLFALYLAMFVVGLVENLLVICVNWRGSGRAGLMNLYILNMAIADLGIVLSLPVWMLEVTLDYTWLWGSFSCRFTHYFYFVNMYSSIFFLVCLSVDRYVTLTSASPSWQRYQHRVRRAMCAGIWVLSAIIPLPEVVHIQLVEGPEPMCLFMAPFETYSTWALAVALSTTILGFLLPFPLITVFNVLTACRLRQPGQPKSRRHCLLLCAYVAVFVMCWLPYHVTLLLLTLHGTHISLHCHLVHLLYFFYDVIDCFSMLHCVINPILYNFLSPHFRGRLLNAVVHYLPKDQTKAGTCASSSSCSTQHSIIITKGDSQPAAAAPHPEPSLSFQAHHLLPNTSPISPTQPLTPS

Biological target: human CXCR4, CFP-tagged (hCXCR4-CFP) (human) (UniProt P61073)
Assay: FRET or BRET; acceptor photobleaching FRET in HEK293T cells transiently cotransfected with a CFP fusion (donor) and a YFP fusion (acceptor); YFP bleached with 514 nm for up to 30 s; confocal microscopy; CXCL12 added to the medium in some samples

In the case of “human GPR182, YFP-tagged (hGPR182-YFP) (from UniProt O15218 1-404) (receptor)”, the binding is reported as “no binding”.
